Experimental data as given in the supplement of paper PMC7858590.
± gives the standard deviation of the averaged measurements. The full ranking holds about 3,800 compounds; the median of “cell shape (eccentricity) Z-score vs DMSO control” is about 1.1, and the lowest 2% start at about -4.7. Some of the results follow.

The compounds below were run on human monocyte-derived macrophages (M0) (assay: cell shape (eccentricity) Z-score vs DMSO control; higher = more elongated, M2-like morphology). Conditions: 20 µM; 24 h; macrophage state: M0 (M-CSF).

Compound	cell shape (Z-score)
CNC(=NC#N)NCCSCc1nc[nH]c1C	0.0387
C#Cc1cccc(Nc2ncnc3cc(OCCOC)c(OCCOC)cc23)c1	9.85 ± 1.2
COc1cc(C(C)=O)ccc1OCCCN1CCC(c2noc3cc(F)ccc23)CC1	-1.32
C=C1C2CCC3[C@]4(C)CCC[C@@](C)(C(=O)O)C4CC[C@]3(C2)[C@H]1OC(C)=O (stereo partly drawn)	1.1
C=CC(C)(C)c1cc2cc3ccoc3cc2oc1=O	-0.961
CCCCCCCCNC[C@@H](O)[C@H](O)[C@@H](O)[C@@H](O)CO	-0.648
CC(C)Nc1ncccn1	-0.0964
COc1ccc(Nc2ncnc3ccc(OC)cc23)cc1	1.84
COC(=O)c1c(C)cc(O)cc1O	1.85
C=CC(C)(C)c1[nH]cnc1/C=C1\NC(=O)C(C(C)C)NC1=O (stereo not drawn)	1.71
CCCCCCCCCCOc1cc2c(O)c(C(=O)OCC)cnc2cc1OCC	1.16
c1ccc(-c2cc3ccccc3[nH]2)cc1	1.23
C[C@]12C=CC(=O)C=C1CC[C@@H]1[C@@H]2[C@@H](O)C[C@@]2(C)[C@H]1CC[C@]2(O)C(=O)CO	-1.34
COc1ccc(C#CC2=CCCN(C(=O)/C=C/c3cc(OC)c(OC)c(OC)c3)C2=O)cc1	1.74
CCCCCCCCC=CCCCCCCCC(=O)NC(CO)Cc1ccc(O)cc1 (stereo not drawn)	2.36
C[C@@H]1CC(=O)c2c(ccc3c2C(=O)c2cccc(O)c2C3=O)C1	0.633
CCCCNC(=O)NS(=O)(=O)c1ccc(C)cc1	-0.616
COc1c(C(O)CC(C)C)ccc2c1C(=O)OCc1cc(C)cc(O)c1O2 (stereo not drawn)	1.35
CC(c1cc2ccccc2s1)N(O)C(N)=O (stereo not drawn)	2.07
O=C1CCc2ccc(OCCCCN3CCN(c4cccc(Cl)c4Cl)CC3)cc2N1	1.22
Cn1cnc2nc(NCCO)nc(NCc3ccccc3)c21	-1.8
CC(OC1OC(CO)C(O)C(O)C1O)C1C(O)CC2C3CCC4=CC(=O)CCC4(C)C3CCC21C (stereo not drawn)	1.57
CC(C)(c1ccc(O)cc1)c1ccc(O)cc1	0.967
C=C(C(=O)O)C1CCC(CCC)OC1=O (stereo not drawn)	0.0873
CC12CCC(=O)C=C1CCC1C2[C@@H](O)CC2(C)C1CC[C@]2(O)C(=O)COP(=O)(O)O (stereo partly drawn)	1.08

Compound	cell shape (Z-score)
N#Cc1cc2[nH]c(=O)c(=O)[nH]c2cc1[N+](=O)[O-]	3.7
NS(=O)(=O)c1ccc(S(=O)(=O)Nc2cccc3c(Cl)c[nH]c23)cc1	2.03
COc1c(C(CC(C)C)OC(C)=O)ccc2c1C(=O)OCc1cc(C)cc(O)c1O2 (stereo not drawn)	0.161
CN1CCc2cc3c(cc2C(=O)Cc2ccc4c(c2C1)OCO4)OCO3	-0.254
Cn1c(=O)/c(=C/c2ccccc2)n(C)c(=O)/c1=C/c1ccccc1	-1.76
CC(C)NCC(O)COc1cccc2ccccc12 (stereo not drawn)	0.545
CN(C)CCC[C@@]1(c2ccc(F)cc2)OCc2cc(C#N)ccc21	3.94
Clc1ccc2c(c1)N=C(N1CCNCC1)c1ccccc1N2	-1.83
O=C(CCc1ccc(O)c(O)c1)C[C@H](CCc1ccc(O)c(O)c1)O[C@@H]1OC[C@@H](O)[C@H](O)[C@H]1O	1.69
CC(=O)OCC(=O)[C@@]1(OC(C)=O)[C@@H](C)CC2C3C[C@H](F)C4=CC(=O)C=C[C@]4(C)[C@@]3(F)[C@@H](O)C[C@@]21C (stereo partly drawn)	-2.73
COc1cc(OC)c2c(OC)c(-c3ccc4c(c3)OCO4)c(=O)oc2c1	3.95
COc1ccccc1[C@@H]1C2=C(CC(C)(C)CC2=O)Nc2n[nH]c(C(F)(F)F)c21	-4.48
Sc1nc2ccccc2s1	2.85
C/C(=C\CC[C@@H](C)[C@H]1CC(OC2OCC(O)C(O)C2O)[C@@]2(C)C3CC[C@H]4C(C)(C)[C@@H](O[C@@H]5OC(CO)C(O)C(O)C5OC5OC(CO)C(O)C(O)C5O)CC[C@@]45C[C@@]35CC(O)[C@]12C)C(=O)OC1OC(CO)C(O)C(O)C1O (stereo partly drawn)	1.04
CC(=O)OCC(=O)[C@@]12OC3(CCCC3)O[C@@H]1CC1C3CCC4=CC(=O)C=C[C@]4(C)[C@@]3(F)[C@@H](O)C[C@@]12C (stereo partly drawn)	-2.37
C=C1CC[C@@H]2[C@](C)(CO[C@@H]3O[C@H](CO)[C@@H](O)[C@H](O)[C@H]3O)CCC[C@@]2(C)[C@@H]1CCC1=CCOC1=O	5.17
COc1cc(C(C)=O)cc(OC)c1O	2.81
CC(=O)c1ccc(O)c(C(N)=O)c1	1.25
CCC(C)SSc1ncc[nH]1 (stereo not drawn)	3.69
CCCCOc1cc(C(=O)NCCN(CC)CC)c2ccccc2n1	0.217
O=C1CCc2cc(OCCCCc3nnnn3C3CCCCC3)ccc2N1	3.6
COc1ccc(C2=NC(c3ccc(Cl)cc3)C(c3ccc(Cl)cc3)N2C(=O)N2CCNC(=O)C2)c(OC(C)C)c1 (stereo not drawn)	0.661
CN(C)CCC=C1c2ccccc2COc2ccccc21	1.65
CC1=CC(=O)[C@H]2C(C)(C)CCC[C@]2(C)[C@@]1(O)CO	2.33
O=C(OCc1ccccc1)c1ccccc1	3.02

Compound	cell shape (Z-score)
CC(=O)Oc1ccc(C(c2ccc(OC(C)=O)cc2)c2ccccn2)cc1	4.24
FC(F)(F)c1cccc(-c2noc(-c3cc(-c4ccccc4)c(C(F)(F)F)s3)n2)c1	1.47
C=C1C(=O)O[C@@H]2C[C@H](C)[C@@]3(O)C[C@H](O)[C@@](C)(C[C@@H](OC(=O)C(C)C)[C@@H]12)O3	0.141
CN(C)CCOC(=O)COc1ccc(Cl)cc1	1.82
COC(=O)N/N=C/c1c[n+]([O-])c2ccccc2[n+]1[O-]	4.22
O=C1CC(c2ccc(O)cc2)Oc2ccccc21 (stereo not drawn)	2.6
CCN(CC)S(=O)(=O)c1ccc(C(=O)O)cc1	1.1
COc1ccc2c(c1)OCC(Cc1ccc(O)c(OC)c1)C2=O (stereo not drawn)	1.32
Nc1c(Br)cc(Br)cc1CNC1CCC(O)CC1 (stereo not drawn)	0.725
CCCC(=O)Nc1ncnc2c1ncn2C1OC2COP(=O)(O)OC2C1OC(=O)CCC (stereo not drawn)	8.07
CCOC(=O)c1c(C)n(C)c2ccc(O)cc12	1.3
CC/C(=C(/CC)c1ccc(O)cc1)c1ccc(O)cc1	1.77
CN(CCOc1ccc(CC2SC(=O)NC2=O)cc1)c1ccccn1 (stereo not drawn)	0.262
CN1CCN(C2=Nc3ccccc3Oc3ccc(Cl)cc32)CC1	1.46
COc1cc(/C=C/C(=O)O[C@@H]2C[C@@](O)(C(=O)O)C[C@@H](O)[C@@H]2O)ccc1O	1.6
COc1ccc2c(=O)cc(-c3ccccc3)oc2c1	1.88
COc1cc(/C=C/c2cc(O)cc(O)c2)ccc1O[C@@H]1O[C@H](CO)[C@@H](O)[C@H](O)[C@H]1O	3.67
Cc1cccc(C)c1NC(=O)CN1CCCCCC1	0.786
CC1(C)C(=O)N=C2c3ccccc3C(=O)C(=O)C21 (stereo not drawn)	-1.97
CN1N=C(C(N)=O)CCC1=O	-1.26
COc1c(-c2coc3cc4c(cc3c2=O)CC(OC(C)=O)C(C)(C)O4)ccc2c1C=CC(C)(C)O2 (stereo not drawn)	3.18
CN1CCN(CC/C=C2\c3ccccc3Sc3ccc(S(=O)(=O)N(C)C)cc32)CC1	-2.78
COc1cc2c(cc1-c1coc3c4c(ccc3c1=O)OC(C)(C)C=C4)OCO2	-5.49
CSc1nc(NC2CCCC2)c([N+](=O)[O-])c(NC2CCCC2)n1	-0.455
CCOC(=O)/C(=N/O)c1csc(N)n1	0.604

Compound	cell shape (Z-score)
CCCCC/C=C\C/C=C\C(O)CCCCCCC(=O)O (stereo not drawn)	-0.823 ± 3.3
CC1(C)C(=O)[C@@H]2C[C@@]3(O)C4=CC(=O)O[C@@H](c5ccoc5)[C@]4(C)CCC3[C@@](C)(C2=O)[C@H]1CC(=O)O (stereo partly drawn)	2.12
C=C(C(=O)O)C(O)CCC1(C)C2CC3C(C2)C31C (stereo not drawn)	2.85
COc1cc2c(cc1OC)C(C(C(=O)N(CCc1ccc(OC)c(OC)c1OC)CCc1ccc(OC)c(OC)c1OC)c1ccccc1)=NCC2 (stereo not drawn)	-1.31
COCCCOc1cc(C[C@@H](C[C@H](N)[C@@H](O)C[C@H](C(=O)NCC(C)(C)C(N)=O)C(C)C)C(C)C)ccc1OC	-1.01
COc1ccc(C2Sc3ccccc3N(CCN(C)C)C(=O)C2OC(C)=O)cc1 (stereo not drawn)	2.58
C[C@@H]1O[C@@H](Oc2cc(O)c3c(=O)c(O[C@@H]4O[C@@H](C)[C@H](O)[C@@H](O)[C@H]4O)c(-c4ccc(O)cc4)oc3c2)[C@H](O)[C@H](O)[C@H]1O	-0.711
CC(C)c1ccc2c(c1)CC[C@H]1[C@](C)(CN)CCC[C@]21C	-0.252
CC1(C)C2CC[C@]3(C)C(C(=O)C=C4[C@@H]5C[C@@](C)(C(=O)O)CC[C@]5(C)CC[C@]43C)[C@@]2(C)CC[C@@H]1OC(=O)CCC(=O)O (stereo partly drawn)	2.95
Oc1cc(O)c2c(c1)O[C@H](c1ccc(O)c(O)c1)[C@@H](O)C2	-0.232
CC1CCC2C(C)(C)[C@@H](O)CC[C@]2(C)C12Cc1c(O)cc3c(c1O2)CN(C(CCC(=O)O)C(=O)O)C3=O (stereo partly drawn)	0.909
COc1cc(O[C@@H]2O[C@H](CO)[C@@H](O)[C@H](O)[C@H]2O)c2c(=O)cc(-c3ccccc3)oc2c1OC	1.17
NS(=O)(=O)c1cccc2c1c([N+](=O)[O-])cc1nc(O)c(O)nc12	1.18
COC(=O)[C@]1(C)CCC[C@@]2(C)[C@H]1CC=C(C)[C@@H]2CCc1ccoc1	-0.638
CC(=O)N1CCN(C)CC1	0.925
C=C1C2CCC3C(CCC4[C@]3(C)CCC[C@]4(C)C(=O)O)(C2)C1OC(=O)/C(C)=C\C (stereo partly drawn)	-1.42
COc1cc(O)c(C)c(O)c1	-0.139
CC(CCC(=O)O)[C@H]1CCC2C3C(=O)C[C@@H]4CC(=O)CC[C@]4(C)C3CC(=O)[C@@]21C (stereo partly drawn)	1.32
O=C(NCCc1ccc(O)c(O)c1)C12CC3CC(CC(C3)C1)C2	0.196
O=C1CC2(CCCC2)CC(=O)N1CCNCC1COc2ccccc2O1 (stereo not drawn)	-0.253
COc1cc2c(cc1OC)C(=O)C(CC1CCN(Cc3ccccc3)CC1)C2 (stereo not drawn)	-1.94
COc1cc2c(=O)c(-c3ccc(O)cc3)coc2cc1O[C@@H]1O[C@@H](C)[C@H](O)[C@@H](O)[C@H]1O	2.24
O=c1cc(-c2ccccc2)oc2cccc(O)c12	3.32

Quoted from the results shown, 7 compounds:
Compound	cell shape (Z-score)
C=C1C2CCC3C(CCC4[C@]3(C)CCC[C@]4(C)C(=O)O)(C2)C1OC(=O)/C(C)=C\C (stereo partly drawn)	-1.42
COc1cc(O)c(C)c(O)c1	-0.139
CC(CCC(=O)O)[C@H]1CCC2C3C(=O)C[C@@H]4CC(=O)CC[C@]4(C)C3CC(=O)[C@@]21C (stereo partly drawn)	1.32
O=C(NCCc1ccc(O)c(O)c1)C12CC3CC(CC(C3)C1)C2	0.196
O=C1CC2(CCCC2)CC(=O)N1CCNCC1COc2ccccc2O1 (stereo not drawn)	-0.253
COc1cc2c(cc1OC)C(=O)C(CC1CCN(Cc3ccccc3)CC1)C2 (stereo not drawn)	-1.94
COc1cc2c(=O)c(-c3ccc(O)cc3)coc2cc1O[C@@H]1O[C@@H](C)[C@H](O)[C@@H](O)[C@H]1O	2.24
